Results from PMC3307752.
Results are given in words; binding and its absence hold for the method and conditions named. In cells and extracts the contact can be indirect. Some results given as binding are weak or reduced against the parent protein; the word gives no strength.

Chains of the proteins cited; added tags and fusions are not shown. Residues count along the entry.
UniProt P25108, residues 21-457: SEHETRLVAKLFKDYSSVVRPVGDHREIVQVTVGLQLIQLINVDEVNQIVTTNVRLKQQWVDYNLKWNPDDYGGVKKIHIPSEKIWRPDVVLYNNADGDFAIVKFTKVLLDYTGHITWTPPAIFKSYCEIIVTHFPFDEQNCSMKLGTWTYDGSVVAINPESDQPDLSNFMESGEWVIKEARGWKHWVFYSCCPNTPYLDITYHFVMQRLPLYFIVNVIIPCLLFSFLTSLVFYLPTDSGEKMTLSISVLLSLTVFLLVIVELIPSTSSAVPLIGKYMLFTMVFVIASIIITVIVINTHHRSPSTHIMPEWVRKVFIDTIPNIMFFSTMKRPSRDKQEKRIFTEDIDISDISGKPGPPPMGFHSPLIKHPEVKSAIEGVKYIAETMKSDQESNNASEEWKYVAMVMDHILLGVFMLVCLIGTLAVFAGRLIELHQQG
UniProt O08589, residues 21-92: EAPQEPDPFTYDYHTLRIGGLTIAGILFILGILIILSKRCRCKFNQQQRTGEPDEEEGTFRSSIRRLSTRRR

Biological target: nicotinic acetylcholine receptor α1 subunit (rat (endogenous in diaphragm muscle)) (UniProt P25108)
Test: co-IP; rat diaphragm muscle from sham (control) or oral nicotine treated (21-31 days) rats, solubilized in lysis buffer (137 mM NaCl, 2.7 mM KCl, 1 mM MgCl2, 20 mM Tris pH 8.0, 1% Triton X-100, 10% glycerol); IP with monoclonal antibody to the nAChRα1 subunit, protein G-agarose beads 1 h at room temperature; Western blot for Na,K-ATPase α1, α2 and PLM

binding	Substance
binds	phospholemman (from UniProt O08589 21-92)
binds	Na,K-ATPase α2 subunit (from UniProt P06686 1-1020) (enzyme)
